From PubChem BioAssay AID212 (DTP/NCI, 2004) come the findings set out here.

The list does not hold the whole screen: it is rich in T/C values a quarter to a half above the control, in often repeated tests (any T/C) and in doses without a T/C. Other doses and runs of a compound stand elsewhere. T/C: endpoint of the treated group in % of that of the vehicle group. Schedule codes are those of the source, taken here to give the interval after Q, in days (D) or hours (H), and the number of doses after X. Some T/C values are followed by the survivors on the day toxicity was checked, most often the fifth; without a count, all were alive then. Some entries hold several experiments; the results are listed from low to high. Some doses have a count of surviving animals in place of a T/C: the source holds a T/C of zero for them, seemingly a mark for toxic or unscored doses. Survivors were counted at the toxicity check, usually on the fifth day, unless a day is given; later deaths do not show.

This test concerns BDF1 mice, colon carcinoma 38 sc, T/C %. The experiment in a line: NCI In Vivo Anticancer Drug Screen. Data for tumor model Colon Carcinoma 38 (subcutaneous) in B6D2F1 (BDF1) mice. The settings on record: T/C endpoint: median tumor weight (est.), higher T/C = larger tumour; for T/C: evaluated on day 20. The procedure, abridged: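 Transplantable tumor in mice; compound-treated vs vehicle-dosed controls. Measured survival or tumor size; value = T ÷ C.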

Setting [1] is: dose: 50.0 mg/kg/injection, schedule: Q07DX002 (ip), vehicle: saline.
[2] abbreviates: dose: 400.0 mg/kg/injection, schedule: Q07DX002 (ip), vehicle: saline.
The mark [3] stands for this setting: dose: 25.0 mg/kg/injection, schedule: Q07DX002 (ip), vehicle: saline.
Setting [4] is: dose: 200.0 mg/kg/injection, schedule: Q07DX002 (ip), vehicle: saline.
The mark [5] stands for this setting: dose: 6.25 mg/kg/injection, schedule: Q07DX002 (ip), vehicle: saline.
Setting [6] is: dose: 12.5 mg/kg/injection, schedule: Q07DX002 (ip), vehicle: saline.
[7] abbreviates: dose: 400.0 mg/kg/injection, schedule: Q07DX002 (ip), vehicle: Klucel (hydroxypropylcellulose) (HPC).
The mark [8] stands for this setting: dose: 50.0 mg/kg/injection, schedule: Q07DX002 (ip), vehicle: Klucel (hydroxypropylcellulose) (HPC).
Setting [9] is: dose: 40.0 mg/kg/injection, schedule: Q07DX003 (ip), vehicle: Klucel (hydroxypropylcellulose) (HPC).

On to `N=c1nc2n(cc1F)[C@@H]1O[C@H](CO)[C@@H](O)[C@@H]1O2`, for which the T/C is 138 % of control under setting [1]; 130 % of control under setting [2]; 125 % of control (dose: 800.0 mg/kg/injection, schedule: Q07DX002 (ip), vehicle: suspension in saline).

On to `C=C1CC2(OC1=O)C(=O)N(C)c1ccc(I)cc12` (stereo not given), for which the T/C under setting [3] is 126 % of control. Moreover, under setting [4], the survivor count is listed as 5 of 10 on day 20.

Regarding `CC1CN1P1(N2CC2C)=NP(N2CC2C)(N2CC2C)=NP(N2CC2C)(N2CC2C)=N1` (stereo not given), the T/C is, setting by setting: under setting [5], 134 % of control; under setting [6], 128 % of control; under setting [3], 131 % of control; under setting [1], 128 % of control. Under setting [4], the survivor count was 0 of 10 on day 20 and 3 of 10 on day 20.

Take `NCCCC(N)(C(=O)O)C(F)F` (stereo not given): the T/C was 144 % of control [9 of 10 alive on day 20] (dose: 200.0 mg/kg/injection, schedule: Q07DX002 (ip), vehicle: distilled water + alcohol) and 136 % of control [9 of 10 alive on day 20] (dose: 800.0 mg/kg/injection, schedule: Q07DX002 (ip), vehicle: distilled water + alcohol).

For `CNC(=O)/C=C/C1=CN2C(=O)c3ccc(C)c(O)c3NC(OC)C2C1` (stereo not given), the T/C (dose: 0.12 mg/kg/injection, schedule: Q07DX002 (ip), vehicle: saline) is 128 % of control. Further, the survivor count (dose: 1.0 mg/kg/injection, schedule: Q07DX002 (ip), vehicle: saline) is 2 of 10 on day 20.

Take `CN(C)CCCOC(=O)Cc1cccc2c(=O)cc(-c3ccccc3)oc12`: the survivor count under setting [7] is recorded as 0 of 10 on day 20.

On to `CC(=O)OC(C)C1C2=C(C(=O)CC1(C)O)C(=O)c1c(ccc(-c3ccc4c(c3O)C(=O)C3=C(C4=O)C(C(C)OC(C)=O)C(C)(O)CC3=O)c1O)C2=O` (stereo not given), for which the survivor count (dose: 15.0 mg/kg/injection, schedule: Q07DX002 (ip), vehicle: saline with Tween-80) is listed as 5 of 10 on day 20.

As for `Cc1c(N)nc(C(CC(N)=O)NCC(N)C(N)=O)nc1C(=O)NC(C(=O)NC(C)C(O)CC(=O)NC(C(=O)NC(OC1OC(C)C(N)C(O)C1O)C(O)c1nc(-c2nc(C(=O)NCCCC(N)CC(=O)NCCCNCCCCN)cs2)cs1)C(C)O)C(OC1OC(CO)C(O)C(O)C1OC1OC(CO)C(O)C(OC(N)=O)C1O)c1cnc[nH]1` (stereo not given), the survivor count (dose: 64.0 mg/kg/injection, schedule: Q07DX002 (ip), vehicle: saline) is 1 of 10 on day 20.

As for `Nc1cc2c(c[n+](CCCCCCCC[n+]3cc4c5ccccc5c(N)cc4c4ccccc43)c3ccccc23)c2ccccc12`, the T/C is 140 % of control [9 of 10 alive] (dose: 1.88 mg/kg/injection, schedule: Q07DX002 (ip), vehicle: water) and 141 % of control (dose: 3.75 mg/kg/injection, schedule: Q07DX002 (ip), vehicle: water).

As to `N=C(N)CCCCCCCCC(=N)N`, the T/C (dose: 1.56 mg/kg/injection, schedule: Q07DX002 (ip), vehicle: saline) is 133 % of control [9 of 10 alive on day 20]. Besides, the survivor count was 0 of 10 on day 20 under setting [5]; 1 of 10 on day 20 under setting [6]; 0 of 10 on day 20 under setting [3]; 0 of 10 on day 20 and 1 of 10 on day 20 under setting [1].

On to `CN(C)CCC(=O)C(=Cc1ccc(O)cc1)C(=O)CCN(C)C`, for which the T/C under setting [4] is 135 % of control. Besides, the survivor count under setting [2] is reported as 2 of 10 on day 20.

With `CC[C@](O)(C(=O)O)c1cc2n(c(=O)c1CO)Cc1cc3ccccc3nc1-2`, under “dose: 200.0 mg/kg/injection, schedule: Q07DX003 (ip), vehicle: saline”, the survivor count was 1 of 10 and 1 of 10 on day 20.

For `O=C(C#Cc1ccccc1)c1ccccc1`, the T/C (dose: 6.25 mg/kg/injection, schedule: Q07DX002 (ip), vehicle: Klucel (hydroxypropylcellulose) (HPC)) was 126 % of control. Also, the survivor count under setting [8] is reported as 6 of 10 on day 20; the survivor count (dose: 100.0 mg/kg/injection, schedule: Q07DX002 (ip), vehicle: Klucel (hydroxypropylcellulose) (HPC)) is 0 of 10 on day 20; the survivor count (dose: 100.0 mg/kg/injection, schedule: Q07DX002 (ip), vehicle: water) is given as 2 of 10 on day 20.

For the compound `CCC(=O)O[C@H]1CC[C@H]2[C@@H]3CCC4=CC(=O)CC[C@]4(C)[C@H]3CC[C@]12C`, the T/C is, setting by setting: (dose: 40.0 mg/kg/injection, schedule: Q07DX002 (ip), vehicle: Klucel (hydroxypropylcellulose) (HPC)) 147 % of control; under setting [9], 96, 112, 138, 143 % of control [9 of 10 alive]; (dose: 80.0 mg/kg/injection, schedule: Q07DX003 (ip), vehicle: Klucel (hydroxypropylcellulose) (HPC)) 123, 155, 178, 187, 202 % of control; (dose: 160.0 mg/kg/injection, schedule: Q07DX002 (ip), vehicle: Klucel (hydroxypropylcellulose) (HPC)) 134 % of control; (dose: 160.0 mg/kg/injection, schedule: Q07DX003 (ip), vehicle: Klucel (hydroxypropylcellulose) (HPC)) 122, 123 [9 of 10 alive], 130, 174, 243 % of control; (dose: 320.0 mg/kg/injection, schedule: Q07DX003 (ip), vehicle: Klucel (hydroxypropylcellulose) (HPC)) 110, 115, 124, 151, 176 % of control. Where the note is “dose: 640.0 mg/kg/injection, schedule: Q07DX003 (ip), vehicle: Klucel (hydroxypropylcellulose) (HPC)”, the T/C was 138 [9 of 10 alive], 149, 150, 167, 170 % of control. In addition, the survivor count under setting [9] is on record as 6 of 10.

In the case of `S=C(Nc1ccc(Cl)c(Cl)c1)N1c2ccccc2-n2cccc2C1c1cccnc1` (stereo not given), the T/C is, setting by setting: (dose: 25.0 mg/kg/injection, schedule: Q07DX002 (ip), vehicle: Klucel (hydroxypropylcellulose) (HPC)) 127 and 142 % of control [9 of 10 alive on day 20]; under setting [8], 126 % of control; under setting [7], 139 % of control; (dose: 800.0 mg/kg/injection, schedule: Q07DX002 (ip), vehicle: Klucel (hydroxypropylcellulose) (HPC)) 126 and 141 % of control.

`CC(=O)Oc1[nH]c(=O)c2cccc3c2c1CCC3`: for the setting “dose: 100.0 mg/kg/injection, schedule: Q07DX002 (ip), vehicle: saline with Tween-80”, the T/C was 137 % of control. Besides, the survivor count (dose: 3200.0 mg/kg/injection, schedule: Q07DX002 (ip), vehicle: saline with Tween-80) is reported as 6 of 10 on day 20.

`CN(C)CCN1C(=O)c2cccc3cc(N)cc(c23)C1=O`: the T/C (dose: 16.0 mg/kg/injection, schedule: Q07DX002 (ip), vehicle: saline with Tween-80) is 142 % of control. Moreover, for the setting “dose: 128.0 mg/kg/injection, schedule: Q07DX002 (ip), vehicle: saline with Tween-80”, the survivor count is listed as 1 of 10 on day 20.

With `O=c1[nH]cccc1O`, the T/C was 141 % of control (dose: 125.0 mg/kg/injection, schedule: Q07DX002 (ip), vehicle: saline with Tween-80) and 147 % of control (dose: 250.0 mg/kg/injection, schedule: Q07DX002 (ip), vehicle: saline with Tween-80). For the setting “dose: 1024.0 mg/kg/injection, schedule: Q07DX002 (ip), vehicle: saline with Tween-80”, the survivor count was 1 of 10 on day 20.
